# These are yes or no findings as the source states them, for the method shown. Some entries that bind do so weakly or less than the wild type. For part of these data: Tags and fused reporters may be left off the sequences shown.
# Protein sequences, listed by entry. Tags and fused reporters are not part of them. Lines headed by an entry give the natural chain unless they say otherwise; changes in a name come on top.
# UniProt Q07011: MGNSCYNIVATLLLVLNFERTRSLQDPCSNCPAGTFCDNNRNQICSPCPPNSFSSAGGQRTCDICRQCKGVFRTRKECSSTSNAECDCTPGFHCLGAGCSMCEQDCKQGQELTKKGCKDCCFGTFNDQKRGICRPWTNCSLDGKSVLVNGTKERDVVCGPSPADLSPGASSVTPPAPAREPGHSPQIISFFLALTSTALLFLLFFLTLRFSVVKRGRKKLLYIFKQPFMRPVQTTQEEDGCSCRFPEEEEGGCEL
# UniProt P25942: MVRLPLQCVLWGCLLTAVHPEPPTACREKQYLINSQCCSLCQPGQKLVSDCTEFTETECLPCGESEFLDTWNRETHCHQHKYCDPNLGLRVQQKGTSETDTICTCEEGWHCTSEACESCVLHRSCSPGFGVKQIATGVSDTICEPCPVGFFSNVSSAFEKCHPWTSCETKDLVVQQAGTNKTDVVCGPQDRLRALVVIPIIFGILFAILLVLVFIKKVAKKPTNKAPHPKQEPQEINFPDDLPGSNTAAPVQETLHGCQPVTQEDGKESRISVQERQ
# T1: OX40-Fc (human, UniProt P43489 29-214)
# T1 construct: extracellular domain; hinge included for covalent assembly; also called OX40 receptor-Fc fusion protein; not shown: human Fc gamma 1 region including the hinge region
# T1 sequence (looked up): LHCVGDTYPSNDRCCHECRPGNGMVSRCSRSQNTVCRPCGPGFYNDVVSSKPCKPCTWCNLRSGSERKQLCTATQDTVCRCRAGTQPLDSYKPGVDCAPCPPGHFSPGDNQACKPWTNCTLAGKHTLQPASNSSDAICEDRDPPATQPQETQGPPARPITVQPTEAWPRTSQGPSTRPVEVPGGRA
# T2: OX40 receptor on cells (human, UniProt P43489 29-277)
# T2 sequence (looked up): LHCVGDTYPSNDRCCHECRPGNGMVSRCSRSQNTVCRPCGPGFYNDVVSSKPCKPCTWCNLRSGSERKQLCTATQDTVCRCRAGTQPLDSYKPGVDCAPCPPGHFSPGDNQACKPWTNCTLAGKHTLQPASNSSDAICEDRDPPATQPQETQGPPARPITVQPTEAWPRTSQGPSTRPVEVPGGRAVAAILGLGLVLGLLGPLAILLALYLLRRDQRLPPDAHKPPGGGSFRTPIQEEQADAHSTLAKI
# T3: CD27-Fc (human, UniProt P26842 20-191)
# T3 construct: extracellular domain; hinge included for covalent assembly; also called CD27 receptor-Fc fusion protein; not shown: human Fc gamma 1 region including the hinge region
# T3 sequence (looked up): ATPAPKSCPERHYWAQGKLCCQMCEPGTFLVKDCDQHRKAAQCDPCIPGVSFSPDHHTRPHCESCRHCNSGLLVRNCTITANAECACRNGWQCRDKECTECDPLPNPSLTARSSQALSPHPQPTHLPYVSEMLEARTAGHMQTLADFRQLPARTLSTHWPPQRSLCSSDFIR
# Assays:
# [1] = target: T4, 4-1BB-Fc (human, UniProt Q07011 24-186); experiment: ELISA, coated receptor-Fc
# T4 construct: extracellular domain; hinge included for covalent assembly; also called 4-1BB receptor-Fc fusion protein; not shown: human Fc gamma 1 region including the hinge region
# [2] = target: T1, OX40-Fc; experiment: ELISA, coated receptor-Fc
# [3] = target: T4, 4-1BB-Fc; experiment: ELISA titration from 316 nM
# [4] = target: T1, OX40-Fc; experiment: ELISA titration from 316 nM
# [5] = target: T4, 4-1BB-Fc; experiment: ELISA, 100 nM, immobilized receptor-Fc
# [6] = target: T1, OX40-Fc; experiment: ELISA, 100 nM, immobilized receptor-Fc
# [7] = target: T5, 4-1BB receptor on cells (human, UniProt Q07011 24-255); experiment: flow cytometry, HT1080 transfectants, 100 nM
# [8] = target: T2, OX40 receptor on cells; experiment: flow cytometry, HT1080 transfectants, 100 nM
# [9] = target: T4, 4-1BB-Fc; experiment: flow cytometry, soluble receptor-Fc (10 nM) on cell-bound scDuokine
# [10] = target: T1, OX40-Fc; experiment: as above
# [11] = target: T5, 4-1BB receptor on cells; experiment: flow cytometry, receptor on HT1080 cells, second receptor-Fc for detection
# [12] = target: T2, OX40 receptor on cells; experiment: as above
# [13] = target: T3, CD27-Fc; experiment: ELISA, coated receptor-Fc
# [14] = target: T3, CD27-Fc; experiment: ELISA titration from 316 nM
# [15] = target: T3, CD27-Fc; experiment: ELISA, 100 nM, immobilized receptor-Fc
# [16] = target: CD27 receptor on cells (human) (UniProt P26842); experiment: flow cytometry, HT1080 transfectants, 100 nM
# [17] = target: T3, CD27-Fc; experiment: flow cytometry, soluble receptor-Fc (10 nM) on cell-bound scDuokine
# [18] = target: CD27 receptor on cells (human) (UniProt P26842); experiment: flow cytometry, receptor on HT1080 cells, second receptor-Fc for detection
# [19] = target: T6, CD40-Fc (human, UniProt P25942 21-193); experiment: ELISA, coated receptor-Fc
# T6 construct: extracellular domain; hinge included for covalent assembly; also called CD40 receptor-Fc fusion protein; not shown: human Fc gamma 1 region including the hinge region
# [20] = target: T6, CD40-Fc; experiment: ELISA titration from 316 nM
# [21] = target: T6, CD40-Fc; experiment: ELISA, 100 nM, immobilized receptor-Fc
# [22] = target: T7, CD40 receptor on cells (human, UniProt P25942 21-277); experiment: flow cytometry, HT1080 transfectants, 100 nM
# [23] = target: T6, CD40-Fc; experiment: flow cytometry, soluble receptor-Fc (10 nM) on cell-bound scDuokine
# [24] = target: T7, CD40 receptor on cells; experiment: flow cytometry, receptor on HT1080 cells, second receptor-Fc for detection
binding [1],binding [3],binding [5],binding [7],binding [9],binding [11],Binder,also measured
binds,binds,binds,binds,binds,binds,"scOX40L-sc4-1BBL (ligand, scDuokine from HEK293; VH leader left out; also called single-chain Duokine scOX40L-sc4-1BBL; not shown: N-terminal FLAG tag) QVSHRYPRIQSIKVQFTEYKKEKGFILTSQKEDEIMKVQNNSVIINCDGFYLISLKGYFSQEVNISLHYQKDEEPLFQLKKVRSVNSLMVASLTYKDKVYLNVTTDNTSLDDFHVNGGELILIHQNPGEFCVLGGGSGGGQVSHRYPRIQSIKVQFTEYKKEKGFILTSQKEDEIMKVQNNSVIINCDGFYLISLKGYFSQEVNISLHYQKDEEPLFQLKKVRSVNSLMVASLTYKDKVYLNVTTDNTSLDDFHVNGGELILIHQNPGEFCVLGGGSGGGQVSHRYPRIQSIKVQFTEYKKEKGFILTSQKEDEIMKVQNNSVIINCDGFYLISLKGYFSQEVNISLHYQKDEEPLFQLKKVRSVNSLMVASLTYKDKVYLNVTTDNTSLDDFHVNGGELILIHQNPGEFCVLGGGGSGGGTGGGGSREGPELSPDDPAGLLDLRQGMFAQLVAQNVLLIDGPLSWYSDPGLAGVSLTGGLSYKEDTKELVVAKAGVYYVFFQLELRRVVAGEGSGSVSLALHLQPLRSAAGAAALALTVDLPPASSEARNSAFGFQGRLLHLSAGQRLGVHLHTEARARHAWQLTQGATVLGLFRVTPEIPAGLPSPRSEGGGGSGGGGSGGGGSREGPELSPDDPAGLLDLRQGMFAQLVAQNVLLIDGPLSWYSDPGLAGVSLTGGLSYKEDTKELVVAKAGVYYVFFQLELRRVVAGEGSGSVSLALHLQPLRSAAGAAALALTVDLPPASSEARNSAFGFQGRLLHLSAGQRLGVHLHTEARARHAWQLTQGATVLGLFRVTPEIPAGLPSPRSEGGGGSGGGGSGGGGSREGPELSPDDPAGLLDLRQGMFAQLVAQNVLLIDGPLSWYSDPGLAGVSLTGGLSYKEDTKELVVAKAGVYYVFFQLELRRVVAGEGSGSVSLALHLQPLRSAAGAAALALTVDLPPASSEARNSAFGFQGRLLHLSAGQRLGVHLHTEARARHAWQLTQGATVLGLFRVTPEIPAGLPSPRSE",binding [2]: binds; binding [4]: binds; binding [6]: binds; binding [8]: binds; binding [10]: binds; binding [12]: binds
binds,binds,binds,binds,binds,binds,"scCD27L-sc4-1BBL (ligand, scDuokine from HEK293; VH leader left out; also called single-chain Duokine scCD27L-sc4-1BBL; not shown: N-terminal FLAG tag) SLGWDVAELQLNHTGPQQDPRLYWQGGPALGRSFLHGPELDKGQLRIHRDGIYMVHIQVTLAICSSTTASRHHPTTLAVGICSPASRSISLLRLSFHQGCTIASQRLTPLARGDTLCTNLTGTLLPSRNTDETFFGVQWVRPGGGSGGGSLGWDVAELQLNHTGPQQDPRLYWQGGPALGRSFLHGPELDKGQLRIHRDGIYMVHIQVTLAICSSTTASRHHPTTLAVGICSPASRSISLLRLSFHQGCTIASQRLTPLARGDTLCTNLTGTLLPSRNTDETFFGVQWVRPGGGSGGGSLGWDVAELQLNHTGPQQDPRLYWQGGPALGRSFLHGPELDKGQLRIHRDGIYMVHIQVTLAICSSTTASRHHPTTLAVGICSPASRSISLLRLSFHQGCTIASQRLTPLARGDTLCTNLTGTLLPSRNTDETFFGVQWVRPGGGGSGGGTGGGGSREGPELSPDDPAGLLDLRQGMFAQLVAQNVLLIDGPLSWYSDPGLAGVSLTGGLSYKEDTKELVVAKAGVYYVFFQLELRRVVAGEGSGSVSLALHLQPLRSAAGAAALALTVDLPPASSEARNSAFGFQGRLLHLSAGQRLGVHLHTEARARHAWQLTQGATVLGLFRVTPEIPAGLPSPRSEGGGGSGGGGSGGGGSREGPELSPDDPAGLLDLRQGMFAQLVAQNVLLIDGPLSWYSDPGLAGVSLTGGLSYKEDTKELVVAKAGVYYVFFQLELRRVVAGEGSGSVSLALHLQPLRSAAGAAALALTVDLPPASSEARNSAFGFQGRLLHLSAGQRLGVHLHTEARARHAWQLTQGATVLGLFRVTPEIPAGLPSPRSEGGGGSGGGGSGGGGSREGPELSPDDPAGLLDLRQGMFAQLVAQNVLLIDGPLSWYSDPGLAGVSLTGGLSYKEDTKELVVAKAGVYYVFFQLELRRVVAGEGSGSVSLALHLQPLRSAAGAAALALTVDLPPASSEARNSAFGFQGRLLHLSAGQRLGVHLHTEARARHAWQLTQGATVLGLFRVTPEIPAGLPSPRSE",binding [13]: binds; binding [14]: binds; binding [15]: binds; binding [16]: binds; binding [17]: binds; binding [18]: binds
binds,binds,binds,binds,binds,binds,"scCD40L-sc4-1BBL (ligand, scDuokine from HEK293; VH leader left out; also called single-chain Duokine scCD40L-sc4-1BBL; not shown: N-terminal FLAG tag) GDQNPQIAAHVISEASSKTTSVLQWAEKGYYTMSNNLVTLENGKQLTVKRQGLYYIYAQVTFCSNREASSQAPFIASLCLKSPGRFERILLRAANTHSSAKPCGQQSIHLGGVFELQPGASVFVNVTDPSQVSHGTGFTSFGLLKLGGGSGGGGDQNPQIAAHVISEASSKTTSVLQWAEKGYYTMSNNLVTLENGKQLTVKRQGLYYIYAQVTFCSNREASSQAPFIASLCLKSPGRFERILLRAANTHSSAKPCGQQSIHLGGVFELQPGASVFVNVTDPSQVSHGTGFTSFGLLKLGGGSGGGGDQNPQIAAHVISEASSKTTSVLQWAEKGYYTMSNNLVTLENGKQLTVKRQGLYYIYAQVTFCSNREASSQAPFIASLCLKSPGRFERILLRAANTHSSAKPCGQQSIHLGGVFELQPGASVFVNVTDPSQVSHGTGFTSFGLLKLGGGGSGGGTGGGGSREGPELSPDDPAGLLDLRQGMFAQLVAQNVLLIDGPLSWYSDPGLAGVSLTGGLSYKEDTKELVVAKAGVYYVFFQLELRRVVAGEGSGSVSLALHLQPLRSAAGAAALALTVDLPPASSEARNSAFGFQGRLLHLSAGQRLGVHLHTEARARHAWQLTQGATVLGLFRVTPEIPAGLPSPRSEGGGGSGGGGSGGGGSREGPELSPDDPAGLLDLRQGMFAQLVAQNVLLIDGPLSWYSDPGLAGVSLTGGLSYKEDTKELVVAKAGVYYVFFQLELRRVVAGEGSGSVSLALHLQPLRSAAGAAALALTVDLPPASSEARNSAFGFQGRLLHLSAGQRLGVHLHTEARARHAWQLTQGATVLGLFRVTPEIPAGLPSPRSEGGGGSGGGGSGGGGSREGPELSPDDPAGLLDLRQGMFAQLVAQNVLLIDGPLSWYSDPGLAGVSLTGGLSYKEDTKELVVAKAGVYYVFFQLELRRVVAGEGSGSVSLALHLQPLRSAAGAAALALTVDLPPASSEARNSAFGFQGRLLHLSAGQRLGVHLHTEARARHAWQLTQGATVLGLFRVTPEIPAGLPSPRSE",binding [19]: binds; binding [20]: binds; binding [21]: binds; binding [22]: binds; binding [23]: binds; binding [24]: binds

# Reference: patent US20190276511A1 (BIONTECH RNA PHARMACEUTICALS, published 2019)
